Assay results reported in patent publication US20040086503A1.
These are yes or no findings as the source states them, for the method shown. Binding can be weak; no strength is given. Each block holds one binder with its values, some of them ahead of it.

Amino acid sequences for entries named in this document (tags omitted). A change or cut given only in a name is not applied to a line headed by its entry.
UniProt P08069: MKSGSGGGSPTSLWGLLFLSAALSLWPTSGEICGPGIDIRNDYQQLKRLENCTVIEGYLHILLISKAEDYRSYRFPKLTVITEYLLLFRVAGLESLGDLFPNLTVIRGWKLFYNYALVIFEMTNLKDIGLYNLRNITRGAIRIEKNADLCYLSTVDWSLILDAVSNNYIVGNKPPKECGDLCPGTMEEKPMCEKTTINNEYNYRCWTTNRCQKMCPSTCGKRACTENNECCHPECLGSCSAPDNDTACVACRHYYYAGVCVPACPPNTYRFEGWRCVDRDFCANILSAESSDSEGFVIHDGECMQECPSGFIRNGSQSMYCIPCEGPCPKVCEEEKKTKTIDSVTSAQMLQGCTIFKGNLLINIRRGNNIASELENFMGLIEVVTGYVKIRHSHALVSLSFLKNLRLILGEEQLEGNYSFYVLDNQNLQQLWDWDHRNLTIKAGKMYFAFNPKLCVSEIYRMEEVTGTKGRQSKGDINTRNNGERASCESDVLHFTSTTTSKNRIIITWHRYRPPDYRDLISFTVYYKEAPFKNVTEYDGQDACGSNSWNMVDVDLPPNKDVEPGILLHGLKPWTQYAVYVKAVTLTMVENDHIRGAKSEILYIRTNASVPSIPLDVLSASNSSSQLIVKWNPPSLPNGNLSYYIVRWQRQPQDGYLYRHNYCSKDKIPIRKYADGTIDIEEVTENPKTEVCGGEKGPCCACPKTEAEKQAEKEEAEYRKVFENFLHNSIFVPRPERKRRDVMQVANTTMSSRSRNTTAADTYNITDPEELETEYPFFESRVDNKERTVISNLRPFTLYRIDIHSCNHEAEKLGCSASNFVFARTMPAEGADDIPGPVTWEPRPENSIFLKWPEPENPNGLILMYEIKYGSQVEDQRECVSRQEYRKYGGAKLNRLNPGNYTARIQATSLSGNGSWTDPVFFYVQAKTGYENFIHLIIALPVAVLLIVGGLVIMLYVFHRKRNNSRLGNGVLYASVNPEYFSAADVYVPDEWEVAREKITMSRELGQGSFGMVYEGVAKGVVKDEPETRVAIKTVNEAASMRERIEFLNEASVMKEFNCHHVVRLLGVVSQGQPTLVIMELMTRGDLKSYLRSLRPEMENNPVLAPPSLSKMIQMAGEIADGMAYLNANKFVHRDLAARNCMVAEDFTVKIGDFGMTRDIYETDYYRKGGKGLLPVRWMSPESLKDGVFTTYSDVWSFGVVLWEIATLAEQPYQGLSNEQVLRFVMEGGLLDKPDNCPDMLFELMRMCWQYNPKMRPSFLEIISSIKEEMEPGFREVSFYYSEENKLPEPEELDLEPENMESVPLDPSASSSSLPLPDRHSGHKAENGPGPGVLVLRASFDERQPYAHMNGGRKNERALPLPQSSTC

Assays:
[1] = biological target: COS7 IGF-IR (old world monkey (COS7 cells)); test: immunoprecipitation and Western blot on cells
[2] = biological target: extracellular domain of IGF-IR (human) (UniProt P08069); test: BIAcore competition on sensorchip-bound IGF-IR ECD
[3] = biological target: extracellular domain of IGF-IR (human) (UniProt P08069); test: SPR (BIAcore) kinetic analyses

binding [1]: binds
binding [2]: binds
binding [3]: binds
B1: anti-IGF-IR antibody 2.12.1 (antibody, V domains shown)
VH: QAQLVESGGGLVKPGGSLRLSCAASGFTFSDYYMSWIRQAPGKGLEWVSYISSSGSTRDYADSVKGRFTISRDNAKNSLYLQMNSLRAEDTAVYYCVRDGVETTFYYYYYGMDVWGQGTTVTVSS
VL: DIQMTQSPSSLSASVGDRVTFTCRASQDIRRDLGWYQQKPGKAPKRLIYAASRLQSGVPSRFSGSGSGTEFTLTISSLQPEDFATYYCLQHNNYPRTFGQGTEVEIIR

binding [2]: binds
binding [3]: binds
B2: anti-IGF-IR antibody 2.14.3 (antibody, human IgG2, V domains shown)
VH: GPGLVKPSETLSLTCTVSGGSISNYYWSWIRQPAGKGLEWIGRIYTSGSPNYNPSLKSRVTMSVDTSKNQFSLKLNSVTAADTAVYYCAVTIFGVVIIFDYWGQGTLVTVSS
VL: SSLSASVGDRVTFTCRASQDIRRDLGWYQQKPGKAPKRLIYAASRLQSGVPSRFSGSGSGTEFTLTISSLQPEDFATYYCLQHNNYPRTFGQGTEVEIIR

binding [3]: binds
B3: anti-IGF-IR antibody 4.17.3 (antibody, human IgG2, V domains shown)
VH: PGLVKPSETLSLTCTVSGGSISSYYWSWIRQPPGKGLEWIGYIYYSGSTNYNPSLKSRVTISVDTSKNQFSLKLSSVTAADTAVYYCARTYSSSFYYYGMDVWGQGTTVTVSS
VL: GDRVTITCRASQSISTFLNWYQQKPGKAPKLLIHVASSLQGGVPSRFSGSGSGTDFTLTISSLQPEDFATYYCQQSYNAPLTFGGGTKVEIK
